Experimental data from the supplement of paper PMC12819154, “High-throughput peptide-centric local stability assay extends protein–ligand identification to membrane proteins, tissues and bacteria” (Nature Structural & Molecular Biology, 2025).
The other results are listed elsewhere or left out. Most values lie at the level of the controls, where differences are scatter.

Sequences of proteins named here, by UniProt entry; tags and fusion partners are left off. A change or cut given only in a name is not applied to a line headed by its entry.
UniProt Q61559: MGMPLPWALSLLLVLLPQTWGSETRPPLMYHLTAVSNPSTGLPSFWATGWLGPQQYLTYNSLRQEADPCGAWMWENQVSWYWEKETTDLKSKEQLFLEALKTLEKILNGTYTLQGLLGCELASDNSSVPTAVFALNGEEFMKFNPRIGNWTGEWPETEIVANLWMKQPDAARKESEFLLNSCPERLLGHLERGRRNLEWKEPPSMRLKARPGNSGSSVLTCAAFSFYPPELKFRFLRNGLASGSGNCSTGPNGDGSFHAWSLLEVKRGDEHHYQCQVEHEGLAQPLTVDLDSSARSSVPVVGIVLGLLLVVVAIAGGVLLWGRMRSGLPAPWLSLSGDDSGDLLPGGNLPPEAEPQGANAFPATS
UniProt Q60634: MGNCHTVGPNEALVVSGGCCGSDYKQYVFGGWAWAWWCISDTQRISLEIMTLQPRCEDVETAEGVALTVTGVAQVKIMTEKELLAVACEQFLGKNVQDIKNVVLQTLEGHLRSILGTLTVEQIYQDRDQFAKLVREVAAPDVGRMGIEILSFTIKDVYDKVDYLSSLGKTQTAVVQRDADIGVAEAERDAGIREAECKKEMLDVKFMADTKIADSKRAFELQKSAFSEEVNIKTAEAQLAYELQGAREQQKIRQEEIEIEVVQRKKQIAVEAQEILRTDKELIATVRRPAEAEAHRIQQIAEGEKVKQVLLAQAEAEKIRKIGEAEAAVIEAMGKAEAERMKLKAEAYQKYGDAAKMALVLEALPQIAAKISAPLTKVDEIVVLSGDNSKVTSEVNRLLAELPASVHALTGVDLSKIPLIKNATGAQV
UniProt Q61792: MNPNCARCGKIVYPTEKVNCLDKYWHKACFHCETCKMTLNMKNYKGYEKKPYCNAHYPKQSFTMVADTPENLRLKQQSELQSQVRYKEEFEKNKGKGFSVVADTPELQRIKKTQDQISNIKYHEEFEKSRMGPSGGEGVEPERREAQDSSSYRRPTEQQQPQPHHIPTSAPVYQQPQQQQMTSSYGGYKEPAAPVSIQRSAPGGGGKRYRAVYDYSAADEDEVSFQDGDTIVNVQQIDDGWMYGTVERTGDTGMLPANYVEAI
UniProt Q62313: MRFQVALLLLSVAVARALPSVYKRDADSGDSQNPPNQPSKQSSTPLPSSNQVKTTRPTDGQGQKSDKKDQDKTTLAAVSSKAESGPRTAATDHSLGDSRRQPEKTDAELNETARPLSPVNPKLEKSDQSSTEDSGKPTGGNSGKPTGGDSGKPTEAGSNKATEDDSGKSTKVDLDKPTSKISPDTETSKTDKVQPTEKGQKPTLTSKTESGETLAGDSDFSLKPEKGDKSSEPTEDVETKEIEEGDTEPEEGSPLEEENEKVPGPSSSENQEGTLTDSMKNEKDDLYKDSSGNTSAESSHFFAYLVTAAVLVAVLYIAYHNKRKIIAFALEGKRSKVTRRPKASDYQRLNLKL
UniProt Q61035: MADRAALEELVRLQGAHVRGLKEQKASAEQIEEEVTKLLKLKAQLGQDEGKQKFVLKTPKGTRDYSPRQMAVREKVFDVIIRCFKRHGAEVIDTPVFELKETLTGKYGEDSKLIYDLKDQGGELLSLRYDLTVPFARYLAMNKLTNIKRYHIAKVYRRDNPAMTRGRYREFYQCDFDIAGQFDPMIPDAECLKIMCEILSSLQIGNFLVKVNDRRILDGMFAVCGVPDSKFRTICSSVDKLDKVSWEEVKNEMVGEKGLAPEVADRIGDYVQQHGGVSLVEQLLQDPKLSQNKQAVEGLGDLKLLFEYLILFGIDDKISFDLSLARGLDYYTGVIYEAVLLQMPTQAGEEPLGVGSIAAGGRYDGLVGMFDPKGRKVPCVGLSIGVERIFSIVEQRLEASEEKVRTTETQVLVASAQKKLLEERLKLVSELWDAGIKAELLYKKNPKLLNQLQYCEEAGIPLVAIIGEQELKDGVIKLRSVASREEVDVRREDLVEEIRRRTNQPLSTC
UniProt Q60598, whole entry: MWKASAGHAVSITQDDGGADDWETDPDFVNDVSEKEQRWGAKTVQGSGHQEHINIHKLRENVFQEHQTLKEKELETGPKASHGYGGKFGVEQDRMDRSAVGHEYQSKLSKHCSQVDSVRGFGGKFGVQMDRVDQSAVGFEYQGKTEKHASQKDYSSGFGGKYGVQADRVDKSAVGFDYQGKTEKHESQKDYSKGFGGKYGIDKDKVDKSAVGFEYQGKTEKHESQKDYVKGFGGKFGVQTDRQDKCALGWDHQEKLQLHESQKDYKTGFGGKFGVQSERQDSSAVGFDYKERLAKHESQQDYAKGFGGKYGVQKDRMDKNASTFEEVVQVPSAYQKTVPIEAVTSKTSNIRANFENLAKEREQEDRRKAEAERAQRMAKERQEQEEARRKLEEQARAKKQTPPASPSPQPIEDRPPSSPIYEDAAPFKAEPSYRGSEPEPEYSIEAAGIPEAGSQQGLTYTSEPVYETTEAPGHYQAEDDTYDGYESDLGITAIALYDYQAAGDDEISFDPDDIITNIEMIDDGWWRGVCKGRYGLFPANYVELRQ
UniProt Q61469: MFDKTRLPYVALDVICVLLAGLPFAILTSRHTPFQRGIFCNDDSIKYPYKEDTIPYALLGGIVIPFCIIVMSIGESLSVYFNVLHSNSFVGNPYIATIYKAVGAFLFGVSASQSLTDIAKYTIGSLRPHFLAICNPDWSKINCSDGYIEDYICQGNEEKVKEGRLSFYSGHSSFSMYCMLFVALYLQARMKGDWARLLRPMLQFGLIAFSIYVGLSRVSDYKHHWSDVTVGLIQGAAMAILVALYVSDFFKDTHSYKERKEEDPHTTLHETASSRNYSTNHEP
UniProt Q5SUE8: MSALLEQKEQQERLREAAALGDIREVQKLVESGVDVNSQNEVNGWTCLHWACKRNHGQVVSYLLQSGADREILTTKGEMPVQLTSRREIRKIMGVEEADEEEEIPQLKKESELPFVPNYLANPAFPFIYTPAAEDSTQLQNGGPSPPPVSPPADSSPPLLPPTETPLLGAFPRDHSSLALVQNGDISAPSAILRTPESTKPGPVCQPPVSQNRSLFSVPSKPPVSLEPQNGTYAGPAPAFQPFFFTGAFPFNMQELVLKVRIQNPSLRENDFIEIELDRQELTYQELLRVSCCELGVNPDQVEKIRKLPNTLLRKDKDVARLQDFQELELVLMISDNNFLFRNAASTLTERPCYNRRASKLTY
UniProt Q60676: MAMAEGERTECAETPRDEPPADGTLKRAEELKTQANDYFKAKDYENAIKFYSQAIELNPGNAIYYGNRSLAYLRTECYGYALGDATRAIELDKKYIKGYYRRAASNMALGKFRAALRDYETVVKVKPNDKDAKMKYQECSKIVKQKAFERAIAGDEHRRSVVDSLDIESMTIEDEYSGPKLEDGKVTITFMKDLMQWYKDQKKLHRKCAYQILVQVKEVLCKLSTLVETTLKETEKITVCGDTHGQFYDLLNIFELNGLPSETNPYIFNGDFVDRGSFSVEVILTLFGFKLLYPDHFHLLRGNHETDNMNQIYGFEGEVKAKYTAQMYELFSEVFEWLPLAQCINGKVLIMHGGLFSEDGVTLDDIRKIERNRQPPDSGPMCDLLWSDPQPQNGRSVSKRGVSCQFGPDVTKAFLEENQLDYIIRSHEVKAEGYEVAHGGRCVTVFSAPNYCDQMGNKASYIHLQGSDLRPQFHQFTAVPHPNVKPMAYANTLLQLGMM
UniProt Q61189: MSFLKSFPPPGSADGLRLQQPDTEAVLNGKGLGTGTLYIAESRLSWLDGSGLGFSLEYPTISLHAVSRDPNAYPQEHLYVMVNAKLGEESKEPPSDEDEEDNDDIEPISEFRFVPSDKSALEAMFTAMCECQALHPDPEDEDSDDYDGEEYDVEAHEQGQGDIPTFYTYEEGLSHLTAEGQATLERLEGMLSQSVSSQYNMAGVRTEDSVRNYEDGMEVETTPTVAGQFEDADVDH
UniProt Q61187: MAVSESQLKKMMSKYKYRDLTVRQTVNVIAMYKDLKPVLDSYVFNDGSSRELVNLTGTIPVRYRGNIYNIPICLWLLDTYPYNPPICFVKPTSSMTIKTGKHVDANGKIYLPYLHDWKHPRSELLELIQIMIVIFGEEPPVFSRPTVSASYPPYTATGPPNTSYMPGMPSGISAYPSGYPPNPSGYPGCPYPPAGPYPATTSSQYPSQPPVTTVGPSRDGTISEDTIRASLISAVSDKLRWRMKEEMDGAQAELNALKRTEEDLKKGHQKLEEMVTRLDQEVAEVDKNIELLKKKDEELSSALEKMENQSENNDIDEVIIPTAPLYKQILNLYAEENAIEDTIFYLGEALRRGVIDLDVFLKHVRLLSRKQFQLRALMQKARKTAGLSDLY
UniProt Q62277, whole entry: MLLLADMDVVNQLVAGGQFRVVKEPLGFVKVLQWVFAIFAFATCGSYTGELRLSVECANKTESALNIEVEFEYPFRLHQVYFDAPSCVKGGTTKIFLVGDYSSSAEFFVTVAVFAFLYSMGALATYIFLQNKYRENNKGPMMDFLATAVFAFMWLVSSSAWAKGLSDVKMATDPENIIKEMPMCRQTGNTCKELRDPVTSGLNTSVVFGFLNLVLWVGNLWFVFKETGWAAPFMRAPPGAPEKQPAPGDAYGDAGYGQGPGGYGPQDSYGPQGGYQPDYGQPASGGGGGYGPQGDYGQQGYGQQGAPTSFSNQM
UniProt Q62470: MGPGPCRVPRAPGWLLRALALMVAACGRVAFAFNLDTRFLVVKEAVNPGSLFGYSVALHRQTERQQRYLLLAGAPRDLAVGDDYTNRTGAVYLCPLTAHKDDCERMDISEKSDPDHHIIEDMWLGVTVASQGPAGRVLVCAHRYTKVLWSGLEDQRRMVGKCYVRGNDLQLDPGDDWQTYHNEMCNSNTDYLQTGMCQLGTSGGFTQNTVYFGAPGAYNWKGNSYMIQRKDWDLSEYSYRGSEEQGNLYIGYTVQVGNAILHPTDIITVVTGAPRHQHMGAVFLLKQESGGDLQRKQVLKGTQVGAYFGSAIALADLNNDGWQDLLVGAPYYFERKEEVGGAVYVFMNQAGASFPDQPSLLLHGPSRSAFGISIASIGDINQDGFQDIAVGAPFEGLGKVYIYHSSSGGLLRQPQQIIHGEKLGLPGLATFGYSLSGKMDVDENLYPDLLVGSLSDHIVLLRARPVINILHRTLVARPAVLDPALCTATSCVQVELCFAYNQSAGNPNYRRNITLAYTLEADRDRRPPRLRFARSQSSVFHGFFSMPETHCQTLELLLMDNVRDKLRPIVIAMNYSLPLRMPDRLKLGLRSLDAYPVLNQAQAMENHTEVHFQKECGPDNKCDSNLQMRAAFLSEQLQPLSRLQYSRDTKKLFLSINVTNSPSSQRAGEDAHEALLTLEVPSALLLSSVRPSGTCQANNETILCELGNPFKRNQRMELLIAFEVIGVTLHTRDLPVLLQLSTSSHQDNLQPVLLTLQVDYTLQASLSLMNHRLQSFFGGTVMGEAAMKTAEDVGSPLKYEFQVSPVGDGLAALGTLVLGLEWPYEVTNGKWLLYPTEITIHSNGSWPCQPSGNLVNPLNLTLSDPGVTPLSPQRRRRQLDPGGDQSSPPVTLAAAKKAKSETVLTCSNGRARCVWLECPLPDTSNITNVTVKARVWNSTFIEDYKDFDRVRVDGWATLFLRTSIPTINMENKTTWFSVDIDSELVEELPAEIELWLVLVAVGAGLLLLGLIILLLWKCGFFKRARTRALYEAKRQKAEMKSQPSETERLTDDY
UniProt Q61545: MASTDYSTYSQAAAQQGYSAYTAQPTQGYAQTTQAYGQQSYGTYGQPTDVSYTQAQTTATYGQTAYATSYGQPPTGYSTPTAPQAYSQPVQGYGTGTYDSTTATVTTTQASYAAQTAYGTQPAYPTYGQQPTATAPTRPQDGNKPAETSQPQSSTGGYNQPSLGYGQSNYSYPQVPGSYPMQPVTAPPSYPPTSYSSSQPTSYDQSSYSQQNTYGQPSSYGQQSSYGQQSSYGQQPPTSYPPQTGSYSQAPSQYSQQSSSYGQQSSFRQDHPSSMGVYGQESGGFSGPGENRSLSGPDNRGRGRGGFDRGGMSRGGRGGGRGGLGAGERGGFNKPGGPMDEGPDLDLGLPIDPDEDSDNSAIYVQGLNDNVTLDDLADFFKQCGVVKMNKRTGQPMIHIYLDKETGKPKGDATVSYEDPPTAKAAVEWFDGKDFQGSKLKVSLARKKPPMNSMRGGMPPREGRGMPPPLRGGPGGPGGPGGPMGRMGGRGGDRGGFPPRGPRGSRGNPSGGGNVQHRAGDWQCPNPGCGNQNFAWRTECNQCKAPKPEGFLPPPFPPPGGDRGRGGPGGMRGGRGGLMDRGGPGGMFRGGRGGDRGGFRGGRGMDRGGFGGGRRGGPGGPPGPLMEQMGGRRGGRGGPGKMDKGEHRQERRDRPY
UniProt Q5SX19: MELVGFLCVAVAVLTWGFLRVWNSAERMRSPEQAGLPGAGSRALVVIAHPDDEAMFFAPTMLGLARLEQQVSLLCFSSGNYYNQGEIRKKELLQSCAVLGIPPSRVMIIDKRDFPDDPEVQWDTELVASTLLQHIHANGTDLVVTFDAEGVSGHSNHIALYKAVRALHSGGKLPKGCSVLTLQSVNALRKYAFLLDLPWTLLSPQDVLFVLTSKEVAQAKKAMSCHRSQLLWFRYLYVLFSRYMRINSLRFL

Compound: CN[C@@H]1C[C@H]2O[C@@](C)([C@@H]1OC)n1c3ccccc3c3c4c(c5c6ccccc6n2c5c31)C(=O)NC4 [staurosporine]
Test: log2 fold change of pooled soluble protein (PISA), ligand vs vehicle (log2 ratio); higher = more thermally stabilized
Settings: ligand concentration: 20 uM; assay format: PISA pool 52.9/55.5/58.6 C

Target | log2 fold change of pooled soluble protein
UniProt Q60847 | 0.00718
UniProt Q61559 | -0.39
UniProt Q64339 | 0.342
UniProt Q60973 | -0.497
UniProt Q5SVQ0 | -0.0961
UniProt Q64261 | -0.172
UniProt Q60634 | -0.0722
UniProt Q64378 | -0.0893
UniProt Q64105 | -0.0212
UniProt Q69ZK6 | -0.0737
UniProt Q61792 | -0.272
UniProt Q61074 | 0.0161
UniProt Q69ZQ2 | -0.0535
UniProt Q62313 | 0.106
UniProt Q61207 | -0.0133
UniProt Q61035 | 0.0118
UniProt Q60598 | -0.0766
UniProt Q61469 | -0.293

Target | log2 fold change of pooled soluble protein
UniProt Q61316 | -0.00384
UniProt Q5U3K5 | 0.112
UniProt Q5SUE8 | -0.113
UniProt Q6A0A2 | -0.051
UniProt Q61129 | 0.000721
UniProt Q61033 | 0.0127
UniProt Q63880 | -0.0353
UniProt Q60676 | 0.0195
UniProt Q62426 | -0.0151
UniProt Q61553 | -0.0263
UniProt Q5RKZ7 | -0.0504
UniProt Q61189 | 0.053
UniProt Q61187 | -0.00458
UniProt Q62277 | -0.242
UniProt Q61133 | -0.167
UniProt Q62470 | -0.0224
UniProt Q61545 | 0.144
UniProt Q5SX19 | 0.283

Rewritten as comma-separated lines: entries from further up.
Target,log2 fold change of pooled soluble protein
UniProt Q61316,-0.00384
UniProt Q5U3K5,0.112
UniProt Q5SUE8,-0.113
UniProt Q6A0A2,-0.051
UniProt Q61129,0.000721
UniProt Q61033,0.0127
UniProt Q63880,-0.0353
UniProt Q60676,0.0195
UniProt Q62426,-0.0151
UniProt Q61553,-0.0263
UniProt Q5RKZ7,-0.0504
